{
  "source": "ChEMBL document CHEMBL3259574",
  "about": "“Environmentally benign synthesis and antimicrobial study of novel chalcogenophosphates” (Bioorg Med Chem Lett, 2014)",
  "system": "Candida albicans",
  "assay": "Antimicrobial activity against Candida albicans MTCC227 assessed as zone diameter at 100 ug/ml after 24 hrs incubation by agar diffusion as say cup method",
  "type": "functional",
  "in_short": "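Agar cup diffusion on nutrient agar plates. Solidified plates were spread with 0.1% cell suspension (10^6 CFU/mL) of the test organism and held 15 min, then 6 mm wells were cut. Samples at 100 µg/mL in DMSO went into the wells, and plates were incubated 24 h at 30–35 °C. Inhibition zone diameter was measured in mm by digital vernier caliper. Triplicate parallel sets gave mean ± standard deviation, compared by ANOVA with Tukey test (P < 0.01).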",
  "data": [
    {"sequence": "NYSTATIN", "values": [
      {"measurement": "inhibition zone (IZ)", "result": 39.2, "unit": "mm"}
    ]}
  ]
}
